Laboratory results reported in PMC6150385, “The Blood-Brain Barrier Permeability of Six Indole Alkaloids from Uncariae Ramulus Cum Uncis in the MDCK-pHaMDR Cell Monolayer Model” (Molecules : A Journal of Synthetic Chemistry and Natural …, 2017).

Test: Bidirectional transport across MDCK-pHaMDR cell monolayer (in vitro BBB model)
Details: dog, MDCK-MDR1

`CC(C)NCC(O)COc1ccc(CC(N)=O)cc1` (stereo not shown) [atenolol, reference compound] showed a Papp at 90 min of 0.287 ×10⁻⁶ cm/s.
